Experimental data as given in PubChem BioAssay AID540276 (National Center for Advancing Translational Sciences (NCATS), 2011).
Hit rate of the full screen: of about 300,000 compounds, about 5,400 (1.8%) were called active. The inconclusive results got no clear call from the source; some entries with a clear call stand among them for comparison. The call rests on the fitted dose curve; tested in HEK293 cells. Potencies of inconclusive entries are doubtful fits and often do not repeat.

Assay: qHTS for inhibitors of binding or entry into cells for Marburg Virus
Conditions: Marburg virus pseudotyped entry inhibition, cell reporter; activity change, negative = inhibition: at 37.8 µM (top of the series) unless noted
On the % scale 0 is the no-effect control and ±100 the full control effect; potency means the concentration at half of the fitted maximal effect.

Compound | activity change, negative = inhibition | Potency
CC(=O)N1c2ccc(S(=O)(=O)N3CCC(C(=O)Nc4ccc(F)cc4)CC3)cc2CC1C (stereo unspecified) | inactive: -23.8% [at 46.1 µM] | –
CCSc1nc(-c2ccc(OC)cc2)ccc1C#N | inactive: -27.8% | –
CCc1ccc(CN(C)Cc2nc(-c3cccc(Cl)c3)no2)nc1 | inactive: -2.63% [at 46.1 µM] | –
COc1cc(C2NC(=S)NC(O)(C(F)(F)F)C2C(=O)c2cccs2)cc(OC)c1O (stereo unspecified) | inactive: 20.5% | –
CCCCN(CCCNC(=O)C1CCN(S(=O)(=O)N2CCOCC2)CC1)c1ccccc1 | – | inconclusive: 35.5 µM [inhibitor, single point]
COc1ccc(CNS(=O)(=O)c2c(C(=O)N3CCCCCC3)c(C)n(C)c2C)cc1 | inactive: 12.8% [at 46.1 µM] | –
CSC(=NS(=O)(=O)c1ccc(N)cc1)NS(=O)(=O)c1cccs1 | inactive: 8.89% [at 46.1 µM] | –
O=C(NCC(c1cccs1)N1CCOCC1)c1ccccc1NS(=O)(=O)c1ccc(Br)cc1 (stereo unspecified) | – | inconclusive: 15.8 µM [inhibitor, partial curve, poor fit]
COc1ccc(C(=O)Nc2ccc(F)cc2F)cc1OC | inactive: -0.214% | –
COc1ccccc1OCC(=O)N/N=C/C=C/c1ccc([N+](=O)[O-])o1 | – | inconclusive: 18.4 µM [inhibitor, partial curve, poor fit]
CN(C)S(=O)(=O)c1cccc(NC(=O)COc2ccccc2C(=O)NCc2ccccc2)c1 | – | inconclusive: 35.5 µM [inhibitor, single point]
Cc1ccc2[nH]c(C)c(CCNC(=O)c3cc4cc(Br)ccc4oc3=O)c2c1 | inactive: -3.25% [at 46.1 µM] | –
O=C(c1cc(C(=O)N2CCN(c3ccc(F)cc3)CC2)cc([N+](=O)[O-])c1)N1CCN(c2ccc(F)cc2)CC1 | – | inconclusive: 6.31 µM [inhibitor, partial curve, poor fit]
COCC(=O)N1CCc2nc(-c3ccccc3)c3c(c2C1)CO[C@@H](C)C3 | – | inconclusive: 0.299 µM [activator, partial curve, poor fit]
CCn1c(SCC(=O)Nc2ccccc2)nnc1-c1ccc(S(=O)(=O)N2CCOCC2)cc1 | – | inactive
CNC(=O)c1c(Cl)cnn1-c1ccc(F)cc1 | – | inconclusive: 15.8 µM [activator, single point]
Cc1cccc(NC(=O)Cn2c(=O)n(CC3CCC(C(=O)NCCc4ccccc4)CC3)c(=O)c3ccccc32)c1C (stereo unspecified) | inactive: -24.8% [at 46.1 µM] | –
Cc1cc2c(cc(C(=O)OC(C(=O)NCc3ccco3)C(C)C)n2C)o1 (stereo unspecified) | – | inconclusive: 23.1 µM [inhibitor, single point]
O=C(Nc1ccccc1)Nc1cc([N+](=O)[O-])ccc1F | inactive: -18.4% | –
Cc1c(-n2cc(C(=O)c3cc(Cl)ccc3O)cc(C#N)c2=O)c(=O)n(-c2ccccc2)n1C | inactive: 1.18% | –
Cc1nc(N)sc1-c1csc(Nc2ccccc2)n1 | – | inconclusive: 8.91 µM [activator, partial curve, poor fit]
C/C(=N\NC(=S)NC1CCCCC1)c1c(F)cccc1F | – | inconclusive: 10 µM [inhibitor, partial curve, poor fit]
O=[N+]([O-])c1cc(Cl)cc(C2=NCCN2)c1 | – | inconclusive: 0.206 µM [inhibitor, partial curve, poor fit]
O=C(COC(=O)c1cc(S(=O)(=O)N2CCOCC2)ccc1F)Nc1c(Cl)cccc1C(F)(F)F | – | inconclusive: 5.62 µM [activator, partial curve, poor fit]

Quoted from above (two entries):
Compound | activity change, negative = inhibition | Potency
CN(C)S(=O)(=O)c1cccc(NC(=O)COc2ccccc2C(=O)NCc2ccccc2)c1 | – | inconclusive: 35.5 µM [inhibitor, single point]
Cc1ccc2[nH]c(C)c(CCNC(=O)c3cc4cc(Br)ccc4oc3=O)c2c1 | inactive: -3.25% [at 46.1 µM] | –

The list goes on.

Compound | activity change, negative = inhibition | Potency
Cc1ccc(-c2noc(CCC(=O)Nc3cccc(C#N)c3)n2)cc1 | inactive: -6.06% | –
N/C(=N\O)c1ccccc1-n1cccc1 | – | inconclusive: 0.631 µM [inhibitor, full curve, poor fit]
CCOc1ccc(-c2cc(CCCC(=O)NCCc3ccc(SC)cc3)no2)cc1 | inactive: -22.7% [at 46.1 µM] | –
COc1ccc(C(=O)NC(=S)N2CCC(C)CC2)cc1 | – | inconclusive: 7.08 µM [activator, partial curve, poor fit]
C=CCOc1nc(-c2ccncc2)nc2ccccc12 | – | inconclusive: 35.5 µM [inhibitor, partial curve, poor fit]
CCC(Oc1ccccc1)C(=O)Nc1ccc(-c2nnc(-c3ccco3)o2)cc1 (stereo unspecified) | inactive: 0.57% | –
O=S(=O)(Nc1ccccc1N1CCCCC1)c1ccc(F)cc1F | – | inconclusive: 14.1 µM [inhibitor, partial curve, poor fit]
CCCCN(C(=O)CCn1c(=O)oc2ccccc21)c1ccccc1 | – | inactive
COc1cccc([C@@H]2Oc3ccc(Br)cc3C(=O)[C@H]2OC(=O)N[C@H]2CCCc3ccccc32)c1 | inactive: -11.4% [at 14.2 µM] | –
Cc1cc(C)n(/N=C/c2cccs2)c(=O)c1C#N | inactive: 14.7% | –
Cc1cnc(NC(=O)c2c(O)c3cccc4c3n(c2=O)CCC4)s1 | inactive: 0.802% | –
Cc1oc(-c2ccccc2F)nc1CSCC(=O)NCCc1ccccc1 | – | inconclusive: 0.562 µM [activator, partial curve, poor fit]
Fc1ccc(-c2cc(-c3ccccc3)nc(-n3cccn3)n2)cc1 | – | inconclusive: 12.6 µM [inhibitor, partial curve]
N=c1c2c(-c3ccccc3)c(-c3ccccc3)oc2ncn1CCN1CCOCC1 | – | inconclusive: 23.1 µM [inhibitor, single point]
O=C(OCC(=O)N1CCCC1)c1cc(Cl)ccc1Cl | inactive: 1.87% | –
O=C(CSCc1ccccc1Cl)Nc1c[nH]c(=O)[nH]c1=O | – | inconclusive: 6.51 µM [inhibitor, single point]
CC(=O)c1ccc(NC(=O)N2CCc3ccccc3C2)cc1 | inactive: -2.63% [at 46.1 µM] | –
Cc1cc(C)c2cc(C(=O)N(C)C3CCN(C)CC3)[nH]c2c1 | – | inconclusive: 35.5 µM [inhibitor, partial curve, poor fit]
O=C(O)CNC(=O)/C(=C/c1cccc([N+](=O)[O-])c1)NC(=O)c1ccco1 | – | inconclusive: 1.26 µM [inhibitor, single point]
CCCOc1ccc(NC(=O)CC2C(=O)N(CC)C(=S)N2CCNC(C)=O)cc1 (stereo unspecified) | inactive: 15.8% | –
COCCNC(=O)NC(=O)COC(=O)c1ccc2[nH]c3c(c2c1)CCCC3 | – | inconclusive: 7.08 µM [inhibitor, partial curve, poor fit]
Cc1ccc(NC(=O)CSc2nc3ccc(NC(=O)CCc4ccccc4)cc3s2)c(C)c1 | inactive: -5.92% [at 46.1 µM] | –
O=C(N/N=C1/CN2CCC1CC2)c1cc2ccccc2cc1O | – | inconclusive: 32.6 µM [activator, single point]
CCOC(=O)c1c(NC(=O)c2ccco2)n(C2CCCCC2)c2nc3ccccc3nc12 | inactive: -1.58% | –

Compound | activity change, negative = inhibition | Potency
CN(CCC#N)C(=O)COC(=O)c1ccc(CNS(=O)(=O)c2ccc(F)c(Cl)c2)cc1 | – | inconclusive: 6.31 µM [activator, single point]
CN(CC(=O)Nc1ccc(F)cc1)C(=O)c1ccc(-c2ccc(Cl)cc2)o1 | – | inconclusive: 15.8 µM [inhibitor, single point]
O=C(CCCCn1c(=O)c2ccccc2n(Cc2ccccc2F)c1=O)NCc1ccccc1Cl | – | inconclusive: 4.47 µM [inhibitor, partial curve, poor fit]
CC(=O)c1c(C)[nH]c(C(=O)CSc2nnc(-c3ccccc3)n2Cc2ccc3c(c2)OCO3)c1C | – | inconclusive: 0.251 µM [activator, full curve, poor fit]
Cc1ccccc1C=Nc1ccccc1C(N)=O | – | inconclusive: 1.58 µM [inhibitor, partial curve, poor fit]
O=C(Nc1cccnc1)c1sc2cccc(F)c2c1Cl | – | inconclusive: 1.26 µM [activator, partial curve, poor fit]
Cc1cccc(NC(=O)c2sc(NC(=O)c3ccco3)c(C#N)c2C)c1C | – | inconclusive: 18.3 µM [inhibitor, single point]
O=C(NNC(=S)Nc1ccc(Cl)cc1Cl)c1ccncc1 | – | inconclusive: 6.31 µM [activator, single point]
Cc1ccc(/C=C2\C(=O)ON=C2c2ccccc2)o1 | inactive: -9.46% [at 46.1 µM] | –
Cc1ccc(C(=O)c2ccccc2C(=O)OCC(=O)Nc2ccc(SC(F)F)cc2)cc1 | – | inconclusive: 35.5 µM [inhibitor, single point]
Cc1ccc(CNC(=O)Cc2ccc(Br)cc2)cc1 | – | inconclusive: 0.251 µM [inhibitor, full curve, poor fit]
CCOC(=O)CCc1c(C)c2ccc(OCc3nn[nH]n3)cc2oc1=O | inactive: -1.46% | –
O=C(NNC(=O)c1ccccc1O)c1ccc(-c2ccc([N+](=O)[O-])cc2)o1 | inactive: -4.65% [at 46.1 µM] | –
C/C(=N\NC(=O)c1c(Cl)cnn1C)c1cccc(NC(=O)C(C)C)c1 | inactive: -33.4% | –
CC(=O)Nc1ccc(NC(=O)c2cc(-c3ccccc3)nc3ccccc23)cc1 | inactive: -22.1% | –
O=C(CCn1c(=S)[nH]c2ccccc2c1=O)NCCSCc1ccccc1 | – | inconclusive: 12.6 µM [inhibitor, partial curve, poor fit]
CC(C)Oc1cccc(-c2cc(C(=O)N3CCN(S(C)(=O)=O)CC3)c3ccccc3n2)c1 | inactive: -29% | –
COC(=O)C(C)n1cnc2c(nnn2-c2cccc(OC)c2)c1=O (stereo unspecified) | – | inconclusive: 10 µM [activator, partial curve, poor fit]
COc1ccc(NC(=O)COc2ccccc2F)cc1S(=O)(=O)N1CCCCC1 | inactive: -21.7% | –
Cc1nnc(SCC(=O)NC2CCC(C)CC2)s1 (stereo unspecified) | – | inconclusive: 0.112 µM [inhibitor, full curve, poor fit]
O=C(c1ccco1)N1CCN(C(=O)c2cc(-c3ccccn3)nc3ccc(Cl)cc23)CC1 | inactive: -10.2% | –
c1ccc(CO/N=C(\c2ccc(C3CC3)nc2)C2CC2)cc1 | – | inconclusive: 10 µM [inhibitor, partial curve, poor fit]
O=C(Nc1cc(S(=O)(=O)N2CCOCC2)ccc1N1CCCC1)c1ccc2c(c1)S(=O)(=O)c1ccccc1C2=O | inactive: -11.9% [at 46.1 µM] | –

Single values from the list:
O=C(Nc1cc(S(=O)(=O)N2CCOCC2)ccc1N1CCCC1)c1ccc2c(c1)S(=O)(=O)c1ccccc1C2=O – activity change, negative = inhibition: inactive: -11.9% [at 46.1 µM]
O=C(c1ccco1)N1CCN(C(=O)c2cc(-c3ccccn3)nc3ccc(Cl)cc23)CC1 – activity change, negative = inhibition: inactive: -10.2%
O=C(Nc1cccnc1)c1sc2cccc(F)c2c1Cl – Potency: inconclusive: 1.26 µM [activator, partial curve, poor fit]
